These are yes or no findings as the source states them, for the method shown. A result given as binding can be weak or reduced; the word gives no strength.
Molecular target: AimR^Kat-N273A (Katmira phage (resident phage of Bacillus subtilis subsp. KATMIRA1933))
Experiment: thermal shift assay (ThermoFluor); 20 μM protein, 5× Sypro Orange, 0.5 μM peptide as printed; 20 mM Tris pH 8, 250 mM NaCl; 25 to 85 °C; both purified

Row | Binder | binding
1 | GMPRGA [AimP^SPβ, the SPβ AimP peptide GMPRGA] | binds
2 | GIVRGA [AimP^Kat, active (mature) Katmira AimP peptide GIVRGA] | binds

Reference: paper PMC9232636, “Insights into the mechanism of action of the arbitrium communication system in SPbeta phages” (Nature Communications, 2022)
